Some of the results follow.

From the supplement of paper PMC10849652 come the findings set out here.

Compound in the first assay: CCCCN(Cc1ccc(C(=O)NO)cc1)C(=O)Nc1ccccc1 [Nexturastat A]
The assay can be described thus: log2 fold change, soluble protein after heating vs DMSO (PISA); higher = thermal stabilisation; K562 cells, 10 uM, 30 min; active = over 0.2 and 3.5 SD of the protein, either way, in both replicates (recomputed). A digest of the protocol:
(§1)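 For each measurement, 10 μM compound was applied for 30 min to K562 cells at 2×10^6 cells/mL. Aliquots were heated for 3 min across 48°C-58°C, pooled, and extracted in PBS with 0.5% NP-40 at 4°C; the supernatant after 21,000xg for 90 min was soluble protein. This was quantified by TMTpro 16plex LC-MS/MS with channel sums equalised, and thermal stability was reported relative to control samples from duplicates, on a log2 fold-change scale.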
Take PRDM2 (UniProt Q13029): the log2 fold change is inactive: 0.114.
Consider PRG2 (UniProt P13727), for which the log2 fold change was inactive: -0.038.
PPTC7 (UniProt Q8NI37): the log2 fold change is inactive: -0.027.
As for PPP1R13L (UniProt Q8WUF5), the log2 fold change was inactive: 0.036.
Take PRKCSH isoform 2 (UniProt P14314): the log2 fold change was inactive: 0.049.
With PRF1 (UniProt P14222), the log2 fold change was inactive: -0.004.
Regarding PRELID3B (UniProt Q9Y3B1), the log2 fold change is inactive: 0.194.
Regarding PPP1R21 (UniProt Q6ZMI0), the log2 fold change is inactive: -0.091.
As to PRR3 (UniProt P79522), the log2 fold change was inactive: 0.035.
The same measure, in the same setting: the result for PPP2R3B (UniProt Q9Y5P8) reads inactive: 0.63; that for PRADC1 (UniProt Q9BSG0), inactive: 0.139; that for PRMT6 (UniProt Q96LA8), inactive: -0.048.
PRKD2 (UniProt M0R346): the log2 fold change was inactive: 0.236.
With PROSER3, A0A2R8Y8D9, the log2 fold change was inactive: 0.337.

Compound in another assay: CCCS(=O)(=O)Nc1ccc(F)c(C(=O)c2c[nH]c3ncc(-c4ccc(Cl)cc4)cc23)c1F [vemurafenib]
The description is as above. A digest of the protocol: as §1
For the target PRDM2 (UniProt Q13029), the log2 fold change is inactive: -0.074.
Same read-out and setting: the result for PRG2 (UniProt P13727) reads inactive: 0.033; that for PPTC7 (UniProt Q8NI37), inactive: -0.042; that for PPP1R13L (UniProt Q8WUF5), inactive: 0.104.
Same read-out and setting: the same measure for PRKCSH isoform 2 (UniProt P14314): inactive: 0; for PPP1R21 (UniProt Q6ZMI0): inactive: 0.041.
Regarding PRR14L (UniProt Q5THK1), the log2 fold change was active: -0.62.
As for PPP2R3B (UniProt Q9Y5P8), the log2 fold change was inactive: 0.007.
As for PPP2R5B (UniProt Q15173), the log2 fold change is inactive: -0.104.
Turning to PRADC1 (UniProt Q9BSG0), the log2 fold change is inactive: -0.14.
PRMT6 (UniProt Q96LA8): the log2 fold change is inactive: 0.057.

Compound in a further assay: CCCS(=O)(=O)Nc1ccc(F)c(C(=O)c2c[nH]c3ncc(Cl)cc23)c1F
The description is as above. A digest of the protocol:
as §1
Take PRPF39 (UniProt Q86UA1): the log2 fold change is inactive: 0.183.
Consider PRDM2 (UniProt Q13029), for which the log2 fold change is inactive: -0.155.
Still for that read-out and setting: the same measure for PRG2 (UniProt P13727): inactive: -0.037; for PRRG1 (UniProt O14668): inactive: -0.007.
As for PROSER3 (UniProt Q2NL68), the log2 fold change was inactive: 0.013.
Same read-out and setting: the same measure for PPP1R13L (UniProt Q8WUF5): inactive: 0.026; for PRF1 (UniProt P14222): inactive: -0.113.
In the case of PRELID3B (UniProt Q9Y3B1), the log2 fold change was inactive: -0.049.
Same read-out and setting: the same measure for PPP1R21 (UniProt Q6ZMI0): inactive: -0.011; for PRR14L (UniProt Q5THK1): inactive: -0.038.
For PPP2R5B (UniProt Q15173), the log2 fold change was inactive: 0.104.
Regarding PRIMPOL (UniProt Q96LW4), the log2 fold change was inactive: 0.043.
Consider PRMT6 (UniProt Q96LA8), for which the log2 fold change is inactive: 0.01.

Compound in a further assay: CCCc1cc(C)[nH]c(=O)c1CNC(=O)c1cc(-c2ccnc(N3CCN(C)CC3)c2)cc2c1cnn2C(C)C
Described as above. The procedure, abridged: as §1
With PRDM2 (UniProt Q13029), the log2 fold change was inactive: 0.036.
Regarding PPP1R3D (UniProt O95685), the log2 fold change was inactive: -0.163.
For PRNP (UniProt P04156), the log2 fold change is inactive: 0.064.
Still for that read-out and setting: the same measure for PRG2 (UniProt P13727): inactive: 0.119; for PRRG1 (UniProt O14668): inactive: -0.055.
For PPP2R5C isoform 2 (UniProt Q13362), the log2 fold change is inactive: -0.016.
PRKCSH isoform 2 (UniProt P14314): the log2 fold change is inactive: -0.498.
Same read-out and setting: the same measure for PRR4 (UniProt Q16378): inactive: 0.131; for PRKX (UniProt P51817): inactive: -0.103.
Still for that read-out and setting: the same measure for PPP2R3B (UniProt Q9Y5P8): inactive: 0.176; for PPP2R5B (UniProt Q15173): inactive: -0.013; for PRADC1 (UniProt Q9BSG0): inactive: -0.065.
Regarding PRMT6 (UniProt Q96LA8), the log2 fold change is inactive: 0.042.
Turning to PPP1CC (UniProt F8W1A0), the log2 fold change was inactive: -0.122.
On to PPP2R1B (UniProt H0YDG7), for which the log2 fold change was inactive: -0.358.
For the target PROSER3, A0A2R8Y8D9, the log2 fold change was inactive: -0.03.

Compound in another assay: CCN(CC)Cc1ccc2cc(COC(=O)Nc3ccc(C(=O)NO)cc3)ccc2c1 [givinostat]
The description is as above. The procedure, abridged:
as §1
On to PPP1R3D (UniProt O95685), for which the log2 fold change was inactive: -0.045.
For the target PRNP (UniProt P04156), the log2 fold change was inactive: -0.028.
In the case of PRG2 (UniProt P13727), the log2 fold change was inactive: -0.027.
Consider PROSER3 (UniProt Q2NL68), for which the log2 fold change is inactive: 0.144.
Turning to PPP2R5C isoform 2 (UniProt Q13362), the log2 fold change is inactive: 0.048.
On the same count and under the same terms, the result for PRR12 (UniProt Q9ULL5) reads inactive: 0.213.
Turning to PRKCSH isoform 2 (UniProt P14314), the log2 fold change is inactive: 0.045.
PPP2CB (UniProt E5RHC1): the log2 fold change was inactive: 0.22.
With PRF1 (UniProt P14222), the log2 fold change was inactive: 0.182.
On to PRELID3B (UniProt Q9Y3B1), for which the log2 fold change is inactive: 0.039.
Regarding PPP1R21 (UniProt Q6ZMI0), the log2 fold change is inactive: 0.087.
For the target PRKX (UniProt P51817), the log2 fold change was inactive: 0.036.
Take PRR16 (UniProt Q569H4): the log2 fold change was inactive: 0.222.
PPP2R5B (UniProt Q15173): the log2 fold change is inactive: 0.083.
With PPP1R12B isoform 6 (UniProt O60237), the log2 fold change is inactive: 0.252.
Consider PRMT6 (UniProt Q96LA8), for which the log2 fold change is inactive: -0.112.
